Test results as given in article PMC4464076.
Results are given in words; binding and its absence hold for the method and conditions named. In cells and extracts the contact can be indirect. These calls come from enrichment with a bait or labelling near it, and not all partners need be listed.

Chains of the proteins cited; added tags and fusions are not shown. Lines headed by an entry give the natural chain unless they say otherwise; changes in a name come on top.
UniProt Q15386: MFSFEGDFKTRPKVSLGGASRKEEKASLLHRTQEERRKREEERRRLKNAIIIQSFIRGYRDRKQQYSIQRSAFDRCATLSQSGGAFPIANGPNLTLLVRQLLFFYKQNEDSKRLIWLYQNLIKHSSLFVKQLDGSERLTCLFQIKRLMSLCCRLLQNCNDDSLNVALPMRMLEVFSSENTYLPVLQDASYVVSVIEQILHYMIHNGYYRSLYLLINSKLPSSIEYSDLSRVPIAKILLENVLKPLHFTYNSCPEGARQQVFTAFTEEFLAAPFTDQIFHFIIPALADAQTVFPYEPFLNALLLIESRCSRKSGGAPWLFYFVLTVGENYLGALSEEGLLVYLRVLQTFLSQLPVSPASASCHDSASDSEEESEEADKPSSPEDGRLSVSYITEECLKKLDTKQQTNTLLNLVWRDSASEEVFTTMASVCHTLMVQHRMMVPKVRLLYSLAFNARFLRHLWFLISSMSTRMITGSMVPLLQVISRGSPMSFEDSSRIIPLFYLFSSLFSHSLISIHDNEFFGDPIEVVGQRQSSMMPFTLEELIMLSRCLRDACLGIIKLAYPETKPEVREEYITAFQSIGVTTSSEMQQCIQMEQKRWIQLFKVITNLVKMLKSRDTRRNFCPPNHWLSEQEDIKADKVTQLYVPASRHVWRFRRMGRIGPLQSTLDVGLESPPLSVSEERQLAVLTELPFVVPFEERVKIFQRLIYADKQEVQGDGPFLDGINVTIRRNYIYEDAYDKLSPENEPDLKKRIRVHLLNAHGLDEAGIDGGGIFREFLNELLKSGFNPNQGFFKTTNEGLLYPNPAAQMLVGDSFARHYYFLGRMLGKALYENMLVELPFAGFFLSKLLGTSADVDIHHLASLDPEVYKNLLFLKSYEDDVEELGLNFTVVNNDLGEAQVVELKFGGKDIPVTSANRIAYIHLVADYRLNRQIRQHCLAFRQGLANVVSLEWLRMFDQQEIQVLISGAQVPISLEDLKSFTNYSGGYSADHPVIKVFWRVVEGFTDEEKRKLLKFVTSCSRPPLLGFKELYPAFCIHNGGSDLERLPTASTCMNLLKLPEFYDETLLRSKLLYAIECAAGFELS

Biological target: Ubiquitin-protein ligase E3C (UBE3C), endogenous in glioma cells (human (endogenous in U87, U251 and TJ899 glioblastoma cells)) (UniProt Q15386)
Test: affinity purification with mass spectrometry; co-IP of UBE3C from lysates of U87, U251 and TJ899 cells (1% Brij 97 lysis buffer, 4 °C), precipitate analysed by LC-MS/MS

B1: Annexin A7 (ANXA7), endogenous in glioma cells (protein, UniProt P20073 1-488)
chain: MSYPGYPPTGYPPFPGYPPAGQESSFPPSGQYPYPSGFPPMGGGAYPQVPSSGYPGAGGYPAPGGYPAPGGYPGAPQPGGAPSYPGVPPGQGFGVPPGGAGFSGYPQPPSQSYGGGPAQVPLPGGFPGGQMPSQYPGGQPTYPSQINTDSFSSYPVFSPVSLDYSSEPATVTQVTQGTIRPAANFDAIRDAEILRKAMKGFGTDEQAIVDVVANRSNDQRQKIKAAFKTSYGKDLIKDLKSELSGNMEELILALFMPPTYYDAWSLRKAMQGAGTQERVLIEILCTRTNQEIREIVRCYQSEFGRDLEKDIRSDTSGHFERLLVSMCQGNRDENQSINHQMAQEDAQRLYQAGEGRLGTDESCFNMILATRSFPQLRATMEAYSRMANRDLLSSVSREFSGYVESGLKTILQCALNRPAFFAERLYYAMKGAGTDDSTLVRIVVTRSEIDLVQIKQMFAQMYQKTLGTMIAGDTSGDYRRLLLAIVGQ
B1 was tested, and the binding was “binds”.
